The supplement of paper PMC12823440, “Inhibitors supercharge kinase turnover through native proteolytic circuits” (Nature, 2025)
Where a name gives a salt, the structure may show the parent alone. The list shows a part of the results. The calls rarely recur for the same compound in another form.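 In K562 cells expressing nanoluciferase-fused kinases, luminescence was recorded at 4 h intervals between 2 and 18 h, normalized as percent of control with DMSO at 100% and a positive control at 0%. A significant (2 sigma) signal drop marks a time point as decreased. The authors' rule for a hit is not shown and takes in more than the number of time points.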

Chains of the proteins cited; added tags and fusions are not shown. Lines headed by an entry give the natural chain unless they say otherwise; changes in a name come on top.
UniProt P36888, whole entry: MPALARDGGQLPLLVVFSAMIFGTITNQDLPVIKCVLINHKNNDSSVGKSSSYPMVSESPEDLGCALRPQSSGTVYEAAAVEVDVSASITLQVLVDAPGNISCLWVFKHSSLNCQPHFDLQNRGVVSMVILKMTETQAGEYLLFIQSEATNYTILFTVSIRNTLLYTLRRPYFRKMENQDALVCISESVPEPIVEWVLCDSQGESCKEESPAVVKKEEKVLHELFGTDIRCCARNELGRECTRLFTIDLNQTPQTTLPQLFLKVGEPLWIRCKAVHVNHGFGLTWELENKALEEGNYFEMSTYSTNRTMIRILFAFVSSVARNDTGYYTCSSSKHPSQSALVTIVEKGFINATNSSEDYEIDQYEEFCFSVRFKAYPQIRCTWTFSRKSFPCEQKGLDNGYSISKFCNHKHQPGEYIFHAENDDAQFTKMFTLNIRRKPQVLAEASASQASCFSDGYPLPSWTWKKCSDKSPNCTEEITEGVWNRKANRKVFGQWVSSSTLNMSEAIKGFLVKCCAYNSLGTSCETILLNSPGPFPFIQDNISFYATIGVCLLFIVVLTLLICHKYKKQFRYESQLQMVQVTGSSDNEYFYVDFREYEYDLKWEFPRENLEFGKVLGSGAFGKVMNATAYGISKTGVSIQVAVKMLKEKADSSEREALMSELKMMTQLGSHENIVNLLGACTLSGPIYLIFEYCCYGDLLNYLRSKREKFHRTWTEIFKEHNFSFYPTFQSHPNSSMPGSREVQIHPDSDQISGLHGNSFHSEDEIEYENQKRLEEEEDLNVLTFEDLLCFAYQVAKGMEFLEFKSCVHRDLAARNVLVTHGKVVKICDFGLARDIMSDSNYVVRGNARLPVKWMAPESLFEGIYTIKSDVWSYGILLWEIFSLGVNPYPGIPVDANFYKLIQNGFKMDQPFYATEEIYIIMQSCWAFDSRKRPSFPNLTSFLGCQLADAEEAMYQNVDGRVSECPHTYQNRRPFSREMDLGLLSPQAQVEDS
UniProt P06241, whole entry, looked up: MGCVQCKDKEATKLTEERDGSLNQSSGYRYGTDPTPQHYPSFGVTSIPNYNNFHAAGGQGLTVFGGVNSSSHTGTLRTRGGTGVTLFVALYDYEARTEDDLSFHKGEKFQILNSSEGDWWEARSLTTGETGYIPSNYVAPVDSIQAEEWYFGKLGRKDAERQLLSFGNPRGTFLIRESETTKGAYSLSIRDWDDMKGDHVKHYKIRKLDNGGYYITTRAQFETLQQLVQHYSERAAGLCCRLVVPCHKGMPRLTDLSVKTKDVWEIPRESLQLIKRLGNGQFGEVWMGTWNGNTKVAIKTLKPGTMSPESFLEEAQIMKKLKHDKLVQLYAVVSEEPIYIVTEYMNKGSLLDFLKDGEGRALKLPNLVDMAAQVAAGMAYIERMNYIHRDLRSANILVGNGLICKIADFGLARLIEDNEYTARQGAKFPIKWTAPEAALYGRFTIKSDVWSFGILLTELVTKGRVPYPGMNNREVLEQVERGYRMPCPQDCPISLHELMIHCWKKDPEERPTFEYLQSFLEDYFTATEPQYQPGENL
UniProt P49840: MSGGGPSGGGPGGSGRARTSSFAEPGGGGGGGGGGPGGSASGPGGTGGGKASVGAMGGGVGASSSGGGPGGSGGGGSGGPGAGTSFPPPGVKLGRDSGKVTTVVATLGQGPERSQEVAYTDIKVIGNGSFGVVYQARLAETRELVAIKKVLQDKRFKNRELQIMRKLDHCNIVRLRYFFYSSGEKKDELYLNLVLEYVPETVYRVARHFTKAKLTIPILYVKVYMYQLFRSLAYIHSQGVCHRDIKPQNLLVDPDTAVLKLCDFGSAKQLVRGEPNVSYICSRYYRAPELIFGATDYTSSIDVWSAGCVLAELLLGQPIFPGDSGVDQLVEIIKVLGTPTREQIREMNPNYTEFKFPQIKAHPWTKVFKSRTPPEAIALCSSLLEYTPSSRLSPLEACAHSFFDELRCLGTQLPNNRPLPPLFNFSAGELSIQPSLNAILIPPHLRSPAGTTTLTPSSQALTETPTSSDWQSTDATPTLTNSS
UniProt P14616: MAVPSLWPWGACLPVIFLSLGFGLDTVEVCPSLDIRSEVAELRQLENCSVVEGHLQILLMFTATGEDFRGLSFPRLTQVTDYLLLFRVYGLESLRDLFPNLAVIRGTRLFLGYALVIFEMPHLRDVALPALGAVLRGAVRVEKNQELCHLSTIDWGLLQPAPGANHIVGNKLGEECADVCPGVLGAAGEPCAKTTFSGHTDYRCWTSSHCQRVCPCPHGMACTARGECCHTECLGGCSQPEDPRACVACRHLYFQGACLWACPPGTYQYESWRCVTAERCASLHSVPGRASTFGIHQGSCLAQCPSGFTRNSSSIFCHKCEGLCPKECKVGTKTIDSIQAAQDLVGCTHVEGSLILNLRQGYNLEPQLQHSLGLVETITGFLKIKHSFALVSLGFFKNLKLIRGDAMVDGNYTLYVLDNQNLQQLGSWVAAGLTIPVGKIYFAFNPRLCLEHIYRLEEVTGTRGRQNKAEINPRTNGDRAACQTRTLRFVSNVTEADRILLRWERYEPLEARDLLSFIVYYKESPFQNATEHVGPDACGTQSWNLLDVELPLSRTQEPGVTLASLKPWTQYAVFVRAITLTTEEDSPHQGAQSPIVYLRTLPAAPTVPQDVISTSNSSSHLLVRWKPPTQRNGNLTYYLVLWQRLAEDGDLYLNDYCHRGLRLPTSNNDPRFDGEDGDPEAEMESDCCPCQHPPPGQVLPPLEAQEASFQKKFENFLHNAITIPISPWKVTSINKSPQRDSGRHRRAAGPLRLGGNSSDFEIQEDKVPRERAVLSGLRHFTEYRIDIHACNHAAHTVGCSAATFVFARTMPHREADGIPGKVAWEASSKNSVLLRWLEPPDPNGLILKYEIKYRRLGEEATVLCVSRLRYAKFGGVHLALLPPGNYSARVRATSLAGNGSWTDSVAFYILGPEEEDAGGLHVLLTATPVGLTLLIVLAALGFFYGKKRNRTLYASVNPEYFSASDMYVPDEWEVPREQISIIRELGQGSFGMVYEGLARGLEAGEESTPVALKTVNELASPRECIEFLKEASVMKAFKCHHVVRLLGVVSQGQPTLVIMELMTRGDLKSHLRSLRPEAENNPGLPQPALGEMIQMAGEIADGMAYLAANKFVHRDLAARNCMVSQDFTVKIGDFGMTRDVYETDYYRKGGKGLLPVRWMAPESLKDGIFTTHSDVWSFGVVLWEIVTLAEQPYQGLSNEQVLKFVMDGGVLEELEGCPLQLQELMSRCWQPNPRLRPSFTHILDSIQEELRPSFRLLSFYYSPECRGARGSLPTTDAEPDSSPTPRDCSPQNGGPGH
UniProt Q9Y616: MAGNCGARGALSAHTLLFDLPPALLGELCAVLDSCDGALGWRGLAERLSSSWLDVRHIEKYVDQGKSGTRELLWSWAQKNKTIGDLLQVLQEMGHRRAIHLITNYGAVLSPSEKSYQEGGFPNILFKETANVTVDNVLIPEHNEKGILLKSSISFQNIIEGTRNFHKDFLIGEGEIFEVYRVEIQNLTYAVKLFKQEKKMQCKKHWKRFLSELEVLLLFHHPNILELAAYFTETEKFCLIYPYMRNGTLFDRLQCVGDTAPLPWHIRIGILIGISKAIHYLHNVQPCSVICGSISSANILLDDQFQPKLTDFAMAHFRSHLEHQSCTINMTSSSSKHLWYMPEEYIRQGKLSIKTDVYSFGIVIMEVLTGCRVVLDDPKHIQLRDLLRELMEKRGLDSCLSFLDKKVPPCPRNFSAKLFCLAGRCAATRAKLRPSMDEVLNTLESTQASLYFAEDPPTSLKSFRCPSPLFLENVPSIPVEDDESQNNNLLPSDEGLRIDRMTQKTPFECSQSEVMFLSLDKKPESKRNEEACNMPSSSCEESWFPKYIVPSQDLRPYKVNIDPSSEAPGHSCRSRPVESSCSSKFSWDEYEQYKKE
UniProt P23458: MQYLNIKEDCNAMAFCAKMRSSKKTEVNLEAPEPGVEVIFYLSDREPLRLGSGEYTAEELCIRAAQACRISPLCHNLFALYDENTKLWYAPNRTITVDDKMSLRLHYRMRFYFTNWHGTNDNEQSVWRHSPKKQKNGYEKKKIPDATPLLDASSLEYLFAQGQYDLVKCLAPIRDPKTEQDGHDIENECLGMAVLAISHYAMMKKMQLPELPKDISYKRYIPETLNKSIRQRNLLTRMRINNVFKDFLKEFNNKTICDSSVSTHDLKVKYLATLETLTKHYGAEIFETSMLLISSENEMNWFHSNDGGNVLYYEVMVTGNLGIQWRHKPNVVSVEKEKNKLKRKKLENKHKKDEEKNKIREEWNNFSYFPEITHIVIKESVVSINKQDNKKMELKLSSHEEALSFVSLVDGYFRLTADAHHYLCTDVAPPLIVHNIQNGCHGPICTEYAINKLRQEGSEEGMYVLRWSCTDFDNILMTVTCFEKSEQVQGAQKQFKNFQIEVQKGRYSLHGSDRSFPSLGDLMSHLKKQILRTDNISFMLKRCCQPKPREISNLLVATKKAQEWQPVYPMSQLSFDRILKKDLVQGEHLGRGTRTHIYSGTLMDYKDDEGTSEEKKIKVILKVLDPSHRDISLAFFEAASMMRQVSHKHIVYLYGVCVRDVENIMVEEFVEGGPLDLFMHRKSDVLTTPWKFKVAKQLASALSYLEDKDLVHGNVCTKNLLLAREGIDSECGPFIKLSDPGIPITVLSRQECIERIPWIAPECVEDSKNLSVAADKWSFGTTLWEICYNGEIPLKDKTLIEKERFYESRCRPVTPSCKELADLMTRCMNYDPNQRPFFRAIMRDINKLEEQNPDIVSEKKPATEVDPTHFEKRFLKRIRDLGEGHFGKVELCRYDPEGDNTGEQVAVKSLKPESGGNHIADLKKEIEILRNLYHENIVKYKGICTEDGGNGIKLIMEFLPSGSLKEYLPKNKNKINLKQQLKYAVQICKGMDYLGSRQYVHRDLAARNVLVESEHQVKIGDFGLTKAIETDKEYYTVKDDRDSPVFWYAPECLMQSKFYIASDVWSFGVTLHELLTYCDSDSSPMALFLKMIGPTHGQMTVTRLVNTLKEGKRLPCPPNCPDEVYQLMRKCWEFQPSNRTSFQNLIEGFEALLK
UniProt P06239: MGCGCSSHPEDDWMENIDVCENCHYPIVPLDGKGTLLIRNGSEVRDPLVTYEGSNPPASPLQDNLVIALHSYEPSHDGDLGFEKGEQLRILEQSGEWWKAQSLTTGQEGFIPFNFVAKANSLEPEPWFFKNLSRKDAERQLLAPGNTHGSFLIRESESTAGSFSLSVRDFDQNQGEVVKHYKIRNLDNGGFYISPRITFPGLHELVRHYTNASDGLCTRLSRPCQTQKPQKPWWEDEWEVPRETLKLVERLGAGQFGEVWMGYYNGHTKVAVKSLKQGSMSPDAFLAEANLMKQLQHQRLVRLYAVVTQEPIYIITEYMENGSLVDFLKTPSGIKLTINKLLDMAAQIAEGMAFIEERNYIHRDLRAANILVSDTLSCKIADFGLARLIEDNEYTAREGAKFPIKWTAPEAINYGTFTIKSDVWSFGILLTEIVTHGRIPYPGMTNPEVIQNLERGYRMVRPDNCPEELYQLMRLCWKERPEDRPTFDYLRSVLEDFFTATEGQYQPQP
UniProt P53671: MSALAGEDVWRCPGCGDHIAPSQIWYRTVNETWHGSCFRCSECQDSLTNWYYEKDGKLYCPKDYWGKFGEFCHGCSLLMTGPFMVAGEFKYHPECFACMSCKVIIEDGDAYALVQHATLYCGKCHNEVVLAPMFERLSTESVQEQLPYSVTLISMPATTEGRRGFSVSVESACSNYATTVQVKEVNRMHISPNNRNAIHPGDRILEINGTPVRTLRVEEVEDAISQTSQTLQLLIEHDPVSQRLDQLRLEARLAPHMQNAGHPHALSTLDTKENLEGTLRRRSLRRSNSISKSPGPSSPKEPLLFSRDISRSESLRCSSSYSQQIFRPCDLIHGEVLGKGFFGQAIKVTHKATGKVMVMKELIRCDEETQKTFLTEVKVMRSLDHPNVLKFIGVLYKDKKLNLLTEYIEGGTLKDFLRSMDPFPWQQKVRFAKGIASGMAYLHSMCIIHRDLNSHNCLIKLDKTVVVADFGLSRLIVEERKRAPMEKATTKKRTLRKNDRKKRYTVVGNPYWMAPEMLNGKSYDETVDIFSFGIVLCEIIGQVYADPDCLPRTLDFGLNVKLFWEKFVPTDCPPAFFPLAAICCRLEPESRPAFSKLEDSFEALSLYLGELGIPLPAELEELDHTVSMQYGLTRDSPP

Experiments:
Assay in all cases: number of time points (of 5) at which kinase-Nluc abundance scored as decreased, DMSO-normalised (count); higher = more persistent destabilization
Settings in all cases: K562; 2-18 h
FLT3 = FLT3 (UniProt P36888)
FYN = FYN (UniProt P06241)
GSK3A = GSK3A (UniProt P49840)
HER2 = HER2 (UniProt P04626)
INSRR = INSRR (UniProt P14616)
IRAK3 = IRAK3 (UniProt Q9Y616)
JAK1 = JAK1 (UniProt P23458)
LCK = LCK (UniProt P06239)
LIMK1 = LIMK1 (UniProt P53667)
LIMK2 = LIMK2 (UniProt P53671)

Measured: number of time points

C1=N/C2=N/c3ccc(OCCN4CCCC4)c(c3)COC/C=C/COCc3cccc(c3)C(=C1)N2 [Pacritinib] (2.5 µM)
0: all assays above

O=C1NC(=O)C(c2ccccc2[N+](=O)[O-])=C1Nc1ccc(O)c(Cl)c1 (10 µM)
0: all assays above

O=C(CCc1ccc2n1[B-](F)(F)[N+]1=C(c3ccc[nH]3)C=CC1=C2)ON1C(=O)CCC1=O [Py-BODIPY-NHS ester] (2.5 µM)
0: all assays above

CCCCNc1ncc2c(-c3ccc(CN4CCN(C)CC4)cc3)cn([C@H]3CC[C@H](O)CC3)c2n1 [UNC2025 (hydrochloride)] (2.5 µM)
1: INSRR
3: FYN | IRAK3 | LIMK1
0: all other assays above

Cc1occ2c1C(=O)c1c(O)ccc(O)c1C2 (2.5 µM)
0: all assays above

O=C(Nc1ncc(SCCN2CCCC2)s1)[C@]1(c2ccc(S(=O)(=O)C3CC3)cc2)C[C@H]1C1CCCCC1 [Globalagliatin] (2.5 µM)
0: all assays above

CN1CCN(c2ccc(NC(=O)c3ccc(C#N)o3)c(N3CCCCC3)c2)CC1 (10 µM)
0: all assays above

CC(C)n1cnnc1-c1cccc(NC(=O)c2cc3ccc(F)cc3[nH]2)n1 (2.5 µM)
0: GSK3A | LCK | LIMK2
3: all other assays above

Cc1cc(=O)[nH]c(=S)[nH]1 [Methylthiouracil] (10 µM)
0: all assays above

Nc1n[nH]c(N)c1N=Nc1ccc(O)cc1 (10 µM)
0: all assays above

COc1cc(-c2cc(-c3cccc(O)c3)cnc2N)cc(OC)c1OC (2.5 µM)
2: INSRR
1: FLT3
0: all other assays above

CC[C@H](C)[C@H](NC(=O)[C@H](CCCCN)NC(=O)[C@H](CC(C)C)NC(=O)[C@@H]1CCCN1C(=O)[C@H](CCC(=O)O)NC(=O)[C@H](Cc1ccc(O)cc1)NC(=O)[C@@H](NC(=O)[C@H](CO)NC(=O)CNC(=O)[C@H](CO)NC(=O)[C@H](CCCN=C(N)N)NC(=O)[C@H](CCCCN)NC(=O)[C@@H](NC(=O)[C@@H](N)CCCN=C(N)N)[C@@H](C)O)C(C)C)C(=O)O [Malantide] (10 µM)
0: all assays above

CCn1c2ccccc2c2cc(Nc3ccnc(NCCCN4CCOCC4)n3)ccc21 (2.5 µM)
0: all assays above

Cc1c(C(=O)Nc2ccc(Oc3ccnc4cc(OCC(C)(C)O)ccc34)c(F)c2)c(=O)n(-c2ccccc2)n1C [Ningetinib Tosylate] (10 µM)
1: GSK3A | LIMK2
2: HER2 | INSRR | LIMK1
3: FYN
0: all other assays above

O=C(O)/C=C/c1cc(Br)c(Br)c(Br)c1Br (10 µM)
0: all assays above

No new results follow: 8 of the compounds above.
C1=N/C2=N/c3ccc(OCCN4CCCC4)c(c3)COC/C=C/COCc3cccc(c3)C(=C1)N2 [Pacritinib] (2.5 µM)
0: all assays above

O=C1NC(=O)C(c2ccccc2[N+](=O)[O-])=C1Nc1ccc(O)c(Cl)c1 (10 µM)
0: all assays above

O=C(CCc1ccc2n1[B-](F)(F)[N+]1=C(c3ccc[nH]3)C=CC1=C2)ON1C(=O)CCC1=O [Py-BODIPY-NHS ester] (2.5 µM)
0: all assays above

CCCCNc1ncc2c(-c3ccc(CN4CCN(C)CC4)cc3)cn([C@H]3CC[C@H](O)CC3)c2n1 [UNC2025 (hydrochloride)] (2.5 µM)
1: INSRR
3: FYN | IRAK3 | LIMK1
0: all other assays above

Cc1occ2c1C(=O)c1c(O)ccc(O)c1C2 (2.5 µM)
0: all assays above

O=C(Nc1ncc(SCCN2CCCC2)s1)[C@]1(c2ccc(S(=O)(=O)C3CC3)cc2)C[C@H]1C1CCCCC1 [Globalagliatin] (2.5 µM)
0: all assays above

CN1CCN(c2ccc(NC(=O)c3ccc(C#N)o3)c(N3CCCCC3)c2)CC1 (10 µM)
0: all assays above

CC(C)n1cnnc1-c1cccc(NC(=O)c2cc3ccc(F)cc3[nH]2)n1 (2.5 µM)
0: GSK3A | LCK | LIMK2
3: all other assays above

More results follow:

CN1CCC(c2ccccc2CC(C)(C)Nc2nc(N3CCOCC3)nc(-n3c(S(C)(=O)=O)nc4ccccc43)n2)CC1 (10 µM)
0: all assays above

Cc1cccc(Cn2nc(C)c3c(NC(=O)c4csc5c(N)ncnc45)cccc32)n1 (10 µM)
0: all assays above

Cc1ccc(CNC(=O)N2CCC[C@]3(CCN(Cc4ccc(Cl)c(Cl)c4)C3)C2)cc1 (10 µM)
0: all assays above

NC(=O)c1cccc2c(N[C@H](CN3CCC3)c3ccc(Cl)c(C(F)(F)F)c3)ncnc12 (10 µM)
4: LIMK1
0: all other assays above

COc1c(OCCCN2CCOCC2)ccc2c3n(c(=NC(=O)c4cnc(N)nc4)nc12)CCN3 [Copanlisib (dihydrochloride)] (10 µM)
1: GSK3A | INSRR
4: JAK1 | LIMK1
0: FLT3 | LCK
3: all other assays above

CCc1nc(C(N)=O)c(Nc2ccc(N3CCC(N4CCN(C)CC4)CC3)c(OC)c2)nc1NC1CCC(OC)CC1 (stereo not given) [EML4-ALK kinase inhibitor 1] (2.5 µM)
0: all assays above

Cc1nc(NC(=O)N2CCC[C@H]2C(N)=O)sc1-c1csc(C(C)(C)C)n1 (10 µM)
0: all assays above

CN(C/C=C/C(=O)Nc1ccc(C(=O)Nc2cccc(Nc3ncc(Cl)c(-c4c[nH]c5ccccc45)n3)c2)cc1)CCCNC(=O)NCCOCCOCCOCCNC(=O)CCCC[C@@H]1SC[C@@H]2NC(=O)N[C@@H]21 (2.5 µM)
1: INSRR | LIMK2
2: GSK3A | HER2 | IRAK3
0: all other assays above

CS(=O)(=O)N1CCc2c(-c3cnc(N)nc3)nc(N3CCOCC3)nc21 (10 µM)
0: all assays above

COc1cccc(Nc2ncnn3ccc(CN4CC[C@@H](N)[C@H](O)C4)c23)c1 (2.5 µM)
1: FLT3
2: LIMK1
4: INSRR
0: all other assays above

O=c1cc(-c2ccc(O)cc2)oc2cc(O)c(O)c(O)c12 [Scutellarein] (10 µM)
0: all assays above

O=C(Nc1nc2cccc(-c3ccc(CN4CCS(=O)(=O)CC4)cc3)n2n1)C1CC1 [Filgotinib] (2.5 µM)
0: all assays above

Cn1sc(=O)n(Cc2ccccc2)c1=O (10 µM)
0: all assays above

CNC(=O)Nc1cc(Oc2cncc(C)c2)c(-c2ccc(OCC(C)(C)O)nc2)cn1 (2.5 µM)
0: all assays above

COC(=O)/C=C/c1ccc(O)c(OC)c1 [Ferulic acid methyl ester] (10 µM)
0: all assays above

COc1cccc2cc(-c3nc([C@H]4CC[C@H](C(=O)O)CC4)n4ncnc(N)c34)[nH]c12 (2.5 µM)
3: INSRR | IRAK3 | LIMK1 | LIMK2
2: FLT3
0: all other assays above

Cn1c(=O)c(Oc2ccc(F)cc2F)cc2cnc(NC(CCO)CCO)nc21 [Pamapimod] (10 µM)
0: all assays above

Cn1cc(-c2cn3nccc3c(-c3cnn([C@]4(CC#N)C[C@@H](C#N)C4)c3)n2)cn1 (10 µM)
0: all assays above

C[C@@H]1O[C@@H](O[C@H]2[C@H](OC(=O)[C@]34CCC(C)(C)C[C@H]3C3=CC[C@@H]5[C@@]6(C)C[C@H](O)[C@H](O[C@@H]7O[C@H](CO)[C@@H](O)[C@H](O)[C@H]7O)C(CO)(CO)[C@@H]6CC[C@@]5(C)[C@]3(C)C[C@H]4O)OC[C@H](O)[C@@H]2O)[C@H](O)[C@H](O)[C@H]1O[C@@H]1OC[C@@H](O)[C@H](O[C@@H]2OC[C@](O)(CO)[C@H]2O)[C@H]1O [Platycodin D] (10 µM)
0: all assays above

CC(C)Cn1cc(C#N)c2cc(Oc3ccc(NC(=O)[C@@H]4CCCN4)cc3)ccc21 (10 µM)
0: all assays above

COc1ccc(COc2cc3oc(=O)c4cc(C(C)O)ccc4c3cc2OC)cc1 (stereo not given) [Palomid 529] (2.5 µM)
0: all assays above
